From PubChem BioAssay AID1671190 (National Center for Advancing Translational Sciences (NCATS), 2021)
The campaign covered roughly 580,000 compounds. About 6,100 (1.1%) were called active. This list was built around the results that the source calls inconclusive (neither active nor inactive); the mix of calls is not that of the screen. The call rests on the fitted dose curve; in most records, active means well fitted inhibition curve with a large enough effect; inconclusive means small, poorly fitted or top-dose-only effect, or another doubt; inactive means no such curve, though single readings can be large or run the other way. Potencies of inconclusive entries are doubtful fits and often do not repeat.

The chains behind the UniProt entries cited, without tags or fusion partners. Where a name states a change or a piece, a line headed by the entry shows the natural chain unless it says otherwise.
UniProt P18054: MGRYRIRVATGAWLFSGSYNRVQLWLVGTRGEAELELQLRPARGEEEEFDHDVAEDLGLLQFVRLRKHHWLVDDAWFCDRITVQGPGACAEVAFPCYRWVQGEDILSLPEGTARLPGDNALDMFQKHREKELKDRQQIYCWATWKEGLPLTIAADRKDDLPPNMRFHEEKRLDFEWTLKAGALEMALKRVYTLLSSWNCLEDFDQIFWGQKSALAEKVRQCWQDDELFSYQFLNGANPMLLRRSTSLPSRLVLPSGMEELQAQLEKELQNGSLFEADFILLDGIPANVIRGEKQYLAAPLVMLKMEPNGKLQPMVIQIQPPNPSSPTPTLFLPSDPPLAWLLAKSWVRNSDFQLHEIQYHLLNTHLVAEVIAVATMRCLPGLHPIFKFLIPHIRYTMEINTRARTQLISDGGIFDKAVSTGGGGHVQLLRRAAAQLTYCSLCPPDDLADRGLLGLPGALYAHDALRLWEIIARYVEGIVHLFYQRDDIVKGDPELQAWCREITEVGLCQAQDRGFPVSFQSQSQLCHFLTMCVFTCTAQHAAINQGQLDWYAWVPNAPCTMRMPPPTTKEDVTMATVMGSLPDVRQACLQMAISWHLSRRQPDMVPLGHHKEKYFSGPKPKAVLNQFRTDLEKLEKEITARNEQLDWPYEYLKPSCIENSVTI

Target: Polyunsaturated fatty acid lipoxygenase ALOX12 (Homo sapiens) (UniProt P18054)
Experiment: Primary qHTS assay for inhibitors of human arachidonate 12S-lipoxygenase (ALOX12): Round 2
Settings: purified 12hLO, xylenol orange hydroperoxide absorbance; activity change, negative = inhibition: at 108 µM (top of the series) unless noted
Summary of the method: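 Purified human 12hLO (150 nM final) in 25 mM Hepes, 0.01% Triton X-100, pH 7.0 was preincubated 15 min at room temperature with compound. Then 40 uM arachidonic acid was added, 30 min. Hydroperoxide was read by Fe-XO absorbance ratio 573/405 nm.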
On the % scale 0 is the no-effect control and ±100 the full control effect; potency means the concentration at half of the fitted maximal effect.

SMILES	activity change, negative = inhibition	Potency
COc1ccc(-c2csc(NC(=S)NC(=O)c3ccco3)n2)cc1	inactive: 1.48%	–
Cc1ccc(S(=O)(=O)Oc2ccccc2-c2ccccc2)cc1	inactive: -0.769%	–
O=C(c1ccc2c(c1)[nH]c(=S)n1c3ccccc3nc21)N1CCN(c2cccc(Cl)c2)CC1	inactive: 2.19%	–
CCOc1cc2[nH]c(=O)n(CCC(=O)N3CCN(c4ccccc4)CC3)c(=O)c2cc1OCC	inactive: -29%	–
COc1cccc(CN2CCc3[nH]c(=S)[nH]c(=O)c3C2)c1	–	inconclusive: 39.8 µM [inhibitor, single point]
Cc1cc(-c2n[nH]c(=S)n2/N=C/c2ccc(Br)s2)n[nH]1	–	inconclusive: 44.7 µM [inhibitor, partial curve, poor fit]
Cc1cc(SCC(=O)NCC(=O)N(C)C)nc2c(C)cccc12	–	inconclusive: 141 µM [inhibitor, partial curve, poor fit]
CN(C)CCCNC(=O)/C(=C\C=C\c1ccccc1)NC(=O)c1ccc([N+](=O)[O-])cc1	–	inconclusive: 100 µM [inhibitor, partial curve, poor fit]
Cc1ccc(C(=O)NC(C)c2ccc(C)c(C)c2)s1 (stereo unspecified)	–	inconclusive: 112 µM [inhibitor, single point]
O=C(CSc1ccc2ccccc2c1Br)Nc1cccc(S(=O)(=O)NC2=NCCCCC2)c1	inactive: 0.685%	–
CC1(C)CN(c2ccsc2C(=O)O)C1=O	–	inconclusive: 0.251 µM [inhibitor, full curve, poor fit]
Cc1ccc(NS(=O)(=O)c2sc3ccc(Cl)cc3c2C)cc1	–	inconclusive: 112 µM [inhibitor, single point]
Cc1ccc(CNCC(=O)Nc2ccc(C)cc2Br)cc1	–	inconclusive: 50.1 µM [inhibitor, partial curve, poor fit]
CC(C)=CCc1cc([C@@H]2CC(=O)c3ccc(O)c(CC=C(C)C)c3O2)ccc1O	–	inconclusive: 50.1 µM [inhibitor, partial curve, poor fit]
CCCSc1oc(-c2ccco2)nc1S(=O)(=O)c1ccc(C)cc1	–	inconclusive: 44.7 µM [inhibitor, partial curve]
CCc1cc(=O)n2[nH]c(C)c(-c3ccc(OC)cc3)c2n1	inactive: -8.65%	–
CN(C)c1ccc(N/C=C/C(=O)C(C)(C)C)cc1	–	inconclusive: 8.91 µM [inhibitor, partial curve, poor fit]
O=c1[nH]cccc1NS(=O)(=O)c1ccc(F)cc1	–	inconclusive: 31.6 µM [inhibitor, partial curve, poor fit]
CCOc1ccc(OCC)c(NS(=O)(=O)c2ccc3c(c2)n(C)c(=O)c(=O)n3C)c1	–	inconclusive: 50.1 µM [inhibitor, partial curve, poor fit]
CCCC(=O)Nc1ccc(-c2csc(NNC(C)=O)n2)cc1	–	inconclusive: 50.1 µM [inhibitor, partial curve, poor fit]
Cc1ccc2scc(N3CCCC(C)C3)c(=O)c2c1 (stereo unspecified)	–	inconclusive: 31.6 µM [inhibitor, full curve, poor fit]
Cc1ccc(CN(C)C(=O)c2coc(COc3ccc4c(c3)OCO4)n2)o1	–	inconclusive: 39.8 µM [inhibitor, partial curve]

SMILES	activity change, negative = inhibition	Potency
COc1ccc(-n2c(SCC(=O)Nc3ccc(Br)cc3)nc(O)cc2=O)cc1	–	active: 2.24 µM
Cc1ccc(NC(=O)N2CCC(NC(=O)c3cccc(C)c3)CC2)cc1	–	inconclusive: 63.1 µM [inhibitor, partial curve, poor fit]
CN1C(=O)C2(CC(=O)Nc3c2cnn3Cc2ccc(Cl)cc2)c2c(Cl)cccc21 (stereo unspecified)	–	inconclusive: 70.8 µM [inhibitor, partial curve, poor fit]
CCCn1c(=N)c(C(=O)NC(C)c2ccccc2)cc2c(=O)n3ccccc3nc21 (stereo unspecified)	–	inconclusive: 56.2 µM [inhibitor, partial curve, poor fit]
O=C(O)/C=C/c1cc(Cl)c(OCc2ccccc2)c(Cl)c1	–	inconclusive: 39.8 µM [inhibitor, partial curve, poor fit]
COc1ccc(C)cc1NC(=O)C1CC1c1ccccc1 (stereo unspecified)	inactive: 0%	–
COc1ccc(C2Nc3ccccc3-c3cc(C)nn32)cc1O (stereo unspecified)	inactive: -5.04%	–
COc1ccc(-c2noc(-c3ccc(Br)o3)n2)cc1	–	inconclusive: 63.1 µM [inhibitor, partial curve, poor fit]
CC(C)n1cc(/C=N/Nc2ccc(C(=O)O)cc2)c2ccccc21	–	inconclusive: 112 µM [inhibitor, single point]
CC1CC2=C(NC(=S)NC2c2cccc(F)c2)/C(=C/c2cccc(F)c2)C1 (stereo unspecified)	–	active: 28.2 µM
O=C(CCl)N1CCN2C(=O)c3ccccc3C12c1ccc(Cl)cc1 (stereo unspecified)	inactive: 0%	–
CCC[C@H]1[C@@H](NS(=O)(=O)c2cc(Cl)cc(Cl)c2)CC[C@@]23CCCN2C(=O)CCC[C@@H]13	inactive: -9.36%	–
Cc1ccccc1-n1ncc(C(C)NC(=O)c2cc(F)ccc2F)c1C (stereo unspecified)	–	inconclusive: 100 µM [inhibitor, partial curve, poor fit]
C=CCn1cccc(C(=O)Nc2ccc(OCC)cc2)c1=O	inactive: -5.17%	–
CCCCNc1c(-c2ccc(OC)c(SC(C)CC)c2)nc2ccc(Cl)cn12 (stereo unspecified)	–	inconclusive: 44.7 µM [inhibitor, partial curve, poor fit]
CCn1c(CNC(=O)c2cccnc2)cc2ccccc21	–	inconclusive: 17.8 µM [inhibitor, full curve]
Cn1c(=O)c2c(ncn2CC(=O)NC[C@H]2O[C@@H](n3cnc4c(N)ncnc43)[C@H](O)[C@@H]2O)n(C)c1=O	–	inconclusive: 22.4 µM [inhibitor, single point]
CC1CCCCC1NC(=S)Nc1ccc(Cl)cc1Cl (stereo unspecified)	–	inconclusive: 7.08 µM [inhibitor, full curve, poor fit]
CC(Sc1nnc(Nc2cccc(Cl)c2)s1)C(=O)N(C)c1ccccc1 (stereo unspecified)	–	inconclusive: 79.4 µM [inhibitor, single point]
CNC(=O)CCn1ncc2cc(OC3CCc4cccc(-c5cccc(CO)c5)c43)ccc21 (stereo unspecified)	–	inconclusive: 100 µM [inhibitor, partial curve, poor fit]
CCC(C)NC(=O)CCc1ccc(C#N)cc1 (stereo unspecified)	–	inconclusive: 112 µM [inhibitor, single point]
Cc1ccccc1-n1nc(SCC(=O)O)sc1=S	–	inconclusive: 35.5 µM [inhibitor, partial curve, poor fit]

SMILES	activity change, negative = inhibition	Potency
CCCCNS(=O)(=O)c1ccc2nc(SCC(=O)Nc3cc(C)cc(C)c3)[nH]c2c1	–	inconclusive: 31.6 µM [inhibitor, partial curve]
Cc1ccc(C)c(S(=O)(=O)NCC(c2ccc(N(C)C)cc2)N2CCOCC2)c1 (stereo unspecified)	–	inconclusive: 44.7 µM [inhibitor, partial curve, poor fit]
CC1(C)CC(NC(=O)c2cccc(S(=O)(=O)N(Cc3ccccc3)c3ccccc3)c2)CC(C)(C)N1	–	inconclusive: 126 µM [inhibitor, partial curve, poor fit]
CCOc1ccc(C(N)=O)cc1OC	inactive: -47.7%	–
CC(C)n1nc(C(=O)Nc2cccc(C(F)(F)F)c2)c2ccccc2c1=O	–	inconclusive: 100 µM [inhibitor, single point]
COc1ccc(-c2nc3ccccn3c2NC2CCCCC2)cc1SC1CCCCC1	–	inconclusive: 44.7 µM [inhibitor, partial curve, poor fit]
Cc1ccc(N(Cc2nc3nc(C)cc(=O)n3[nH]2)C(=O)c2ccccc2Cl)cc1	–	inconclusive: 1.41 µM [inhibitor, full curve, poor fit]
FC(F)Sc1ccc(NC(=S)NCC2CCCCC2)cc1	–	active: 15.8 µM
CCC(=O)N1CCC(n2c(C)cnc2-c2ccccc2)CC1	inactive: 50.1%	–
Cc1cccc(OCCn2nnc3sc4c(c3c2=O)CCCC4)c1	inactive: -18.8%	–
CN(Cc1ccccc1Cl)C(=O)C1CC(=O)N(c2ccc3c(c2)OCCO3)C1 (stereo unspecified)	–	inconclusive: 1.78 µM [inhibitor, full curve, poor fit]
Cc1ccc(C(C)Nc2ncccc2-c2nc(-c3cccc(C)c3)no2)cc1 (stereo unspecified)	–	inconclusive: 126 µM [inhibitor, single point]
O=C1C2C3C=CC(C2C(=O)N1CCO)C1C(=O)N(CCO)C(=O)C31 (stereo unspecified)	inactive: 20.2%	–
CC(C)c1ccc(NS(=O)(=O)c2ccc3[nH]cc(C(=O)NC4CCCCC4)c(=O)c3c2)cc1	–	active: 35.5 µM
Cc1nn2c(c1-c1ccccc1Oc1ccccc1)N(CC1CC1)CCC2	–	inconclusive: 28.2 µM [inhibitor, partial curve, poor fit]
Oc1cc(C2CCCCC2)ccc1C1CCCCC1	–	inconclusive: 44.7 µM [inhibitor, partial curve, poor fit]
COc1cccc(-c2nc(CS(=O)(=O)CC(=O)NCc3ccccc3)c(C)o2)c1	–	inconclusive: 44.7 µM [inhibitor, single point]
Cc1nn(-c2ccccn2)c(C)c1[C@@H]1C=C[C@@H](NC(=O)CSCC(=O)O)C1	–	inconclusive: 5.62 µM [inhibitor, full curve]
CCNC(=O)c1cccc(NC(=O)Cc2ccc(OC)cc2)c1	inactive: 3.59%	–
Cc1c(NC(=S)N/N=C/c2ccc([N+](=O)[O-])cc2O)c(=O)n(-c2ccccc2)n1C	inactive: -8.97%	–
Cc1ccc(-n2nnnc2SCC(=O)N(C)c2ccccc2C(=O)NCc2ccco2)c(C)c1	–	inconclusive: 44.7 µM [inhibitor, partial curve, poor fit]
Cc1cccc(OCc2nnc(SCC(=O)Nc3nccs3)o2)c1	inactive: 482%	–

Some of the entries so far, as a markdown table:

| SMILES | activity change, negative = inhibition | Potency |
| --- | --- | --- |
| Cc1ccc(CNCC(=O)Nc2ccc(C)cc2Br)cc1 | – | inconclusive: 50.1 µM [inhibitor, partial curve, poor fit] |
| CC(C)=CCc1cc([C@@H]2CC(=O)c3ccc(O)c(CC=C(C)C)c3O2)ccc1O | – | inconclusive: 50.1 µM [inhibitor, partial curve, poor fit] |
| CCCSc1oc(-c2ccco2)nc1S(=O)(=O)c1ccc(C)cc1 | – | inconclusive: 44.7 µM [inhibitor, partial curve] |
| CCc1cc(=O)n2[nH]c(C)c(-c3ccc(OC)cc3)c2n1 | inactive: -8.65% | – |
